The experiment has as its target HA‐FAK (UniProt Q00944). In words: co-IP; HEK293T cells transfected with HA‐FAK and GFP‐PI3KC2α (WT, HBD or HBD deleted); HA‐FAK immunoprecipitated with anti HA antibody and protein G‐Sepharose, bound proteins blotted with anti GFP or anti HA; lysis in 50 mM Tris‐HCl, 150 mM NaCl, 1% NP‐40, 1 mM EDTA, 10% glycerol; 4 °C.

Sequences of proteins named here, by UniProt entry; tags and fusion partners are left off.
UniProt Q00944: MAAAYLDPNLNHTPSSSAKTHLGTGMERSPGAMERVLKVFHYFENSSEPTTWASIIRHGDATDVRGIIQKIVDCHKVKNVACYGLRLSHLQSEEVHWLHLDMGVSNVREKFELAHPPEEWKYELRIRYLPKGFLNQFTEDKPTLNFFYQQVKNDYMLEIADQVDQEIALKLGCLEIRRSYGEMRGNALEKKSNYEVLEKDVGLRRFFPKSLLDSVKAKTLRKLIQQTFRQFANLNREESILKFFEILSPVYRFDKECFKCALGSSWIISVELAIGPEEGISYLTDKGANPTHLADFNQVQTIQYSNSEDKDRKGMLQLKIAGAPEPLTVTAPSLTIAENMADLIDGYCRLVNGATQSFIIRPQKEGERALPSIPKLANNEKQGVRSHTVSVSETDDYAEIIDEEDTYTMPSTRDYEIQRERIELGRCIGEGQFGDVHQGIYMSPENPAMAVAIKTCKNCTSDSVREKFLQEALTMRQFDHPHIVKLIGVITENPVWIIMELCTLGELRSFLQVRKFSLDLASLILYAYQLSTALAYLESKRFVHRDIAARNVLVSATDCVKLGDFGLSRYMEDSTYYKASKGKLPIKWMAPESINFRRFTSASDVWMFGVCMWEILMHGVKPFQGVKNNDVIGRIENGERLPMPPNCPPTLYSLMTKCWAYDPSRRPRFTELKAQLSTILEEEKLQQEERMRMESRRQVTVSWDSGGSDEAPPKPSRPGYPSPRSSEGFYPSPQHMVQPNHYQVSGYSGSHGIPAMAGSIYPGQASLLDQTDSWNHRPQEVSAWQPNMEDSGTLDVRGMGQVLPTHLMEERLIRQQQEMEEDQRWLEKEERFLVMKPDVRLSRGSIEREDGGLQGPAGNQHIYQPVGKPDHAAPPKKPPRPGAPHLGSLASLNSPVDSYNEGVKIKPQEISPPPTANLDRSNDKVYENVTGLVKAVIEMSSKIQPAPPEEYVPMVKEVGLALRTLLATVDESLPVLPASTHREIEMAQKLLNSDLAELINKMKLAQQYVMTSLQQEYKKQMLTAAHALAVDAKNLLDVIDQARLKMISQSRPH
UniProt O00443: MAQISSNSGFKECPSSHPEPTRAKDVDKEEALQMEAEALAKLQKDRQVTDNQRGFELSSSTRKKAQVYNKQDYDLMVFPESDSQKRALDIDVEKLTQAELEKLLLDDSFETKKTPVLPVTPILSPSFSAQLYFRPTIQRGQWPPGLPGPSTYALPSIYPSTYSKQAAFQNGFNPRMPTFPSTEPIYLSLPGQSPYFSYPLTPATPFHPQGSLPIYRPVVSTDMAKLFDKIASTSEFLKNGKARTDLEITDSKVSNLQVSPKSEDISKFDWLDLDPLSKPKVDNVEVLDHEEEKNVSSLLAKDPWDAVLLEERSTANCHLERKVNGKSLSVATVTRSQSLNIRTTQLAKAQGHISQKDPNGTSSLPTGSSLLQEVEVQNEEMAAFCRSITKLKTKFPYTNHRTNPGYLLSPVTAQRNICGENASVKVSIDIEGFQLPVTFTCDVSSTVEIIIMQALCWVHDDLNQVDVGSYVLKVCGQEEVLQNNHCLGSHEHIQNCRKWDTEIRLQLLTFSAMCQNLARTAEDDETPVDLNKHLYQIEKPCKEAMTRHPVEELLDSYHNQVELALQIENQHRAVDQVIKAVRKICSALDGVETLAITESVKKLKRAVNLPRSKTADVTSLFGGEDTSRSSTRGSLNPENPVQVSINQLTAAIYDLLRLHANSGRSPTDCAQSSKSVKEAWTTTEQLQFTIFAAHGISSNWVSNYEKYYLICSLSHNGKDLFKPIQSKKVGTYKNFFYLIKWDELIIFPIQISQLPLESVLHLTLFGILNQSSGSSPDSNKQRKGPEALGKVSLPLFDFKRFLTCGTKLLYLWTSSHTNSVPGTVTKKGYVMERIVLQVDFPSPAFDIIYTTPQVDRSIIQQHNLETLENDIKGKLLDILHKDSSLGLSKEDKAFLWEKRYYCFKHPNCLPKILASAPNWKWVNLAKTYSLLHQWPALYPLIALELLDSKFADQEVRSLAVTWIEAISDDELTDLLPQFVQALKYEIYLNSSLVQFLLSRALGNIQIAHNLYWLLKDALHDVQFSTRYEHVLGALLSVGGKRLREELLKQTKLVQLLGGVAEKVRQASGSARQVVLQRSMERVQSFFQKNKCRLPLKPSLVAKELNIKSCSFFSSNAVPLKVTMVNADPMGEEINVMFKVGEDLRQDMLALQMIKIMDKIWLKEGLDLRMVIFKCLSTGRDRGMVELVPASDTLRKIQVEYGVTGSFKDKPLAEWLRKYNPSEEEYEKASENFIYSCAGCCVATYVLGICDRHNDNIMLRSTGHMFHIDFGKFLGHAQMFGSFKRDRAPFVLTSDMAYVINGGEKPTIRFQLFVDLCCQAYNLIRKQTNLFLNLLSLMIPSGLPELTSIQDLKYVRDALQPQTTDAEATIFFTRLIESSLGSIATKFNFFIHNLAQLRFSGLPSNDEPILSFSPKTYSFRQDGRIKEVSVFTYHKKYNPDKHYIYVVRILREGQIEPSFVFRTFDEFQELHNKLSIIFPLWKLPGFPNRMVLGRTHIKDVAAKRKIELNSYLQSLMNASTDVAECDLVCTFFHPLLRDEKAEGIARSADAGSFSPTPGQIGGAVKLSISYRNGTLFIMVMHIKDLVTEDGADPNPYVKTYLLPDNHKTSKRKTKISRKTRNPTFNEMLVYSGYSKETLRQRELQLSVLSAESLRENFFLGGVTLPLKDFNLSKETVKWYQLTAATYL

No constants are given. Whether binding was seen depends on the method and setting. In cells and extracts the contact can be indirect. Some results given as binding are weak or reduced against the parent protein; the word gives no strength.

Data on one substance can be found in paper PMC8948670.

On to “GFP‐PI3KC2α (full length) (from UniProt O00443 1-1686) (enzyme)”, for which the binding result is given as “binds”.
